From the supplement of paper PMC4604168 (melanoma cell lines)
The other results are listed elsewhere or left out. Repeats are few or missing, and single values can be far off.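 The apoptosis fraction was the count of cleaved-PARP antibody-stained nuclei relative to all DNA-stained nuclei, imaged in 1,536-well plates. Screening doses were set so most cells survived, and baseline and induced cleaved-PARP levels vary greatly across cell lines.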

Columns and labels:
Assay in all cases: cleaved PARP positive nuclei fraction relative to DMSO control; melanoma cells; higher = more apoptosis
Conditions in all cases: library dose: low library concentration; 72 h
WM115 = tested on: WM115
WM1716 = tested on: WM1716
WM1745 = tested on: WM1745
WM3526 = tested on: WM3526
WM3619 = tested on: WM3619
WM451Lu = tested on: WM451Lu

| SMILES | cleaved PARP positive nuclei fraction (WM115) [%] | cleaved PARP positive nuclei fraction (WM1716) [%] | cleaved PARP positive nuclei fraction (WM1745) [%] | cleaved PARP positive nuclei fraction (WM3526) [%] | cleaved PARP positive nuclei fraction (WM3619) [%] | cleaved PARP positive nuclei fraction (WM451Lu) [%] |
| --- | --- | --- | --- | --- | --- | --- |
| CC[C@]1(O)C[C@H]2CN(CCc3c([nH]c4ccccc34)[C@@](C(=O)OC)(c3cc4c(cc3OC)N(C=O)[C@H]3[C@@](O)(C(=O)OC)[C@H](OC(C)=O)[C@]5(CC)C=CCN6CC[C@]43[C@@H]65)C2)C1 [vincristine] + CC1(C)CCC(c2ccc(Cl)cc2)=C(CN2CCN(c3ccc(C(=O)NS(=O)(=O)c4ccc(N[C@H](CCN5CCOCC5)CSc5ccccc5)c(S(=O)(=O)C(F)(F)F)c4)cc3)CC2)C1 [ABT263] (first compound 0.0001 µM, partner dose 0.4 µM) | 192 | 156 | 261 | 35.9 | 219 | 270 |
| Cc1cn(-c2cc(NC(=O)c3ccc(C)c(Nc4nccc(-c5cccnc5)n4)c3)cc(C(F)(F)F)c2)cn1 [nilotinib] + CNC(=O)c1cc(Oc2ccc(NC(=O)Nc3ccc(Cl)c(C(F)(F)F)c3)cc2)ccn1 [sorafenib] (first compound 0.2 µM, partner dose 0.4 µM) | 50.8 | 164 | 99 | 78.8 | 82.7 | 87.1 |
| Cc1cn(-c2cc(NC(=O)c3ccc(C)c(Nc4nccc(-c5cccnc5)n4)c3)cc(C(F)(F)F)c2)cn1 [nilotinib] + Cc1ccc(NC(=O)c2cccc(N(C)C)c2)cc1NC(=O)c1ccc(O)cc1 [ZM336372] (first compound 0.2 µM, partner dose 2 µM) | 35.3 | 69.4 | 98.6 | 103 | 124 | 53.9 |
| O=C(Nc1cc(C(F)(F)F)cc(C(F)(F)F)c1)c1cc(Cl)ccc1O + C[C@]1(c2nc3c(C(N)=O)cccc3[nH]2)CCCN1 [Veliparib] (first compound 0.016 µM, partner dose 1.4 µM) | 82.4 | 266 | 95.7 | 51.1 | 97 | 81.9 |
| Cc1ccc(Nc2nccc(N(C)c3ccc4c(C)n(C)nc4c3)n2)cc1S(N)(=O)=O [Pazopanib] + CN(C)S(=O)(=O)c1ccc2c(c1)/C(=C/c1cc3c([nH]1)CCCC3)C(=O)N2 [SU6656] (first compound 0.4 µM, partner dose 0.4 µM) | 147 | 78 | 102 | 256 | 97.3 | 88 |
| O=C(/C=C/c1cccnc1)NCCCCC1CCN(C(=O)c2ccccc2)CC1 + Cc1cn(-c2cc(NC(=O)c3ccc(C)c(Nc4nccc(-c5cccnc5)n4)c3)cc(C(F)(F)F)c2)cn1 [nilotinib] (first compound 0.01 µM, partner dose 0.2 µM) | 95 | 49.2 | 102 | 123 | 108 | 78.4 |
| O=C(Nc1cc(C(F)(F)F)cc(C(F)(F)F)c1)c1cc(Cl)ccc1O + CN(NC(=O)CC(=O)NN(C)C(=S)c1ccccc1)C(=S)c1ccccc1 [STA4783] (first compound 0.016 µM, partner dose 0.006 µM) | 172 | 249 | 226 | 153 | 109 | 116 |
| O=C(/C=C/c1cccnc1)NCCCCC1CCN(C(=O)c2ccccc2)CC1 + O=C(Nc1cccc(Cl)c1)Nc1ncc(CCNc2ncnc3ccsc23)s1 [SNS314] (first compound 0.01 µM, partner dose 0.0008 µM) | 360 | 90.8 | 85.3 | 59.9 | 206 | 88.9 |
| COc1cc([C@@H]2c3cc4c(cc3[C@@H](O[C@@H]3O[C@@H]5CO[C@@H](C)O[C@H]5[C@H](O)[C@H]3O)[C@H]3COC(=O)[C@H]23)OCO4)cc(OC)c1O [etoposide] + O=C(/C=C/c1cccnc1)NCCCCC1CCN(C(=O)c2ccccc2)CC1 [FK866] (first compound 0.02 µM, partner dose 0.01 µM) | 144 | 37.5 | 104 | 74.3 | 129 | 77.3 |
| Cc1ccc(Nc2nccc(N(C)c3ccc4c(C)n(C)nc4c3)n2)cc1S(N)(=O)=O [Pazopanib] + C[C@@H](N)c1ccc(C(=O)Nc2ccnc3[nH]ccc23)cc1 [RKI983] (first compound 0.4 µM, partner dose 0.4 µM) | 115 | 136 | 83.9 | 19.8 | 86.2 | 83.9 |
| Cc1cn(-c2cc(NC(=O)c3ccc(C)c(Nc4nccc(-c5cccnc5)n4)c3)cc(C(F)(F)F)c2)cn1 [nilotinib] + CO[C@@H]1[C@H](N(C)C(=O)c2ccccc2)C[C@H]2O[C@]1(C)n1c3ccccc3c3c4c(c5c6ccccc6n2c5c31)C(=O)NC4 [Midostaurin] (first compound 0.2 µM, partner dose 0.08 µM) | 92.5 | 204 | 132 | 338 | 106 | 82.6 |
| COc1cc([C@@H]2c3cc4c(cc3[C@@H](O[C@@H]3O[C@@H]5CO[C@@H](C)O[C@H]5[C@H](O)[C@H]3O)[C@H]3COC(=O)[C@H]23)OCO4)cc(OC)c1O [etoposide] + O=C(Nc1cccc(Cl)c1)Nc1ncc(CCNc2ncnc3ccsc23)s1 [SNS314] (first compound 0.02 µM, partner dose 0.0008 µM) |  | 95.8 | 94 | 18.6 |  | 50 |
| O=c1[nH]nc(Sc2ncc([N+](=O)[O-])s2)n1-c1ccc2c(c1)OCCO2 + CCc1ccc(CCOc2ccc(CC3SC(=O)NC3=O)cc2)nc1 [pioglitazone] (first compound 0.2 µM, partner dose 2 µM) | 127 | 278 | 104 | 39.6 | 87.2 | 45.5 |
| O=C(/C=C/c1cccnc1)NCCCCC1CCN(C(=O)c2ccccc2)CC1 + CS(=O)(=O)c1ccc(C(=O)Nc2ccc(Cl)c(-c3ccccn3)c2)c(Cl)c1 [vismodegib] (first compound 0.01 µM, partner dose 1 µM) | 97.4 | 97.7 | 94.8 | 81.3 | 118 | 48.8 |
| Cc1ccc(Nc2nccc(N(C)c3ccc4c(C)n(C)nc4c3)n2)cc1S(N)(=O)=O [Pazopanib] + O=C(CCCCCCC(=O)Nc1ccccc1)NO [vorinostat] (first compound 0.4 µM, partner dose 0.08 µM) | 102 | 126 | 102 | 124 | 92.3 | 265 |
| O=C(Nc1cc(C(F)(F)F)cc(C(F)(F)F)c1)c1cc(Cl)ccc1O + COc1ccc(-c2ccc3c(N4CCOCC4)nc(N4C[C@@H](C)O[C@@H](C)C4)nc3n2)cc1CO [KU0063794] (first compound 0.016 µM, partner dose 0.02 µM) | 65.4 | 123 | 87.9 | 81.5 | 94.6 | 99.1 |
| Cc1ccc(Nc2nccc(N(C)c3ccc4c(C)n(C)nc4c3)n2)cc1S(N)(=O)=O [Pazopanib] + CC(C)C[C@H](NC(=O)[C@H](Cc1ccccc1)NC(=O)c1cnccn1)B(O)O [Bortezomib] (first compound 0.4 µM, partner dose 0.001 µM) | 56.1 | 40.6 | 104 | 53.2 | 104 | 498 |
| COc1cc([C@@H]2c3cc4c(cc3[C@@H](O[C@@H]3O[C@@H]5CO[C@@H](C)O[C@H]5[C@H](O)[C@H]3O)[C@H]3COC(=O)[C@H]23)OCO4)cc(OC)c1O [etoposide] + COc1ccc(COc2ccc(Cc3cnc(N)nc3N)cc2OC)cc1 [GW2580] (first compound 0.02 µM, partner dose 1 µM) | 109 |  | 94 | 167 | 94.5 | 88.6 |
| Cc1ccc(Nc2nccc(N(C)c3ccc4c(C)n(C)nc4c3)n2)cc1S(N)(=O)=O [Pazopanib] + O=C(O)[C@@H]1[O][Sb](=[O])([O][Sb]2(=[O])[O][C@H]([C@H](O)CO)[C@H](O)[C@H](C(=O)O)[O]2)[O][C@H]([C@H](O)CO)[C@@H]1O [stibogluconate] (first compound 0.4 µM, partner dose 2 µM) | 72.8 | 4160 | 93.1 | 86.3 | 111 | 45.8 |
| COc1cc([C@@H]2c3cc4c(cc3[C@@H](O[C@@H]3O[C@@H]5CO[C@@H](C)O[C@H]5[C@H](O)[C@H]3O)[C@H]3COC(=O)[C@H]23)OCO4)cc(OC)c1O [etoposide] + C[C@@H]1CCN(C(=O)CC#N)C[C@@H]1N(C)c1ncnc2[nH]ccc12 [CP690550] (first compound 0.02 µM, partner dose 1 µM) | 16.8 | 33.3 | 93.9 | 54 | 117 | 84.4 |
| Cc1cc(Nc2cc(N3CCN(C)CC3)nc(Sc3ccc(NC(=O)C4CC4)cc3)n2)n[nH]1 [Tozasertib] + CCN(CC)CCCCNc1ncc2cc(-c3cc(OC)cc(OC)c3)c(NC(=O)NC(C)(C)C)nc2n1 [PD173074] (first compound 0.006 µM, partner dose 0.1 µM) | 30.6 | 54.9 | 121 | 92.9 | 112 | 32.3 |
| O=C(/C=C/c1cccnc1)NCCCCC1CCN(C(=O)c2ccccc2)CC1 + O=C(O)c1ccc2c(c1)nc(Nc1cccc(Cl)c1)c1ccncc12 [CX4945] (first compound 0.01 µM, partner dose 0.4 µM) | 142 | 172 | 96.1 | 98 | 100 | 89.5 |
| COc1cc([C@@H]2c3cc4c(cc3[C@@H](O[C@@H]3O[C@@H]5CO[C@@H](C)O[C@H]5[C@H](O)[C@H]3O)[C@H]3COC(=O)[C@H]23)OCO4)cc(OC)c1O [etoposide] + NC(=O)c1ccc(N(C(N)=O)c2c(F)cccc2F)nc1-c1ccc(F)cc1F [VX702] (first compound 0.02 µM, partner dose 0.4 µM) | 103 | 73.8 | 79.9 | 106 | 90.4 | 132 |
| Cc1cc(Nc2cc(N3CCN(C)CC3)nc(Sc3ccc(NC(=O)C4CC4)cc3)n2)n[nH]1 [Tozasertib] + C[C@@H](N)c1ccc(C(=O)Nc2ccnc3[nH]ccc23)cc1 [RKI983] (first compound 0.006 µM, partner dose 0.4 µM) | 86.2 | 247 | 93.6 | 73.4 | 68.1 | 193 |

Quoted from the listing.
Value for O=C(/C=C/c1cccnc1)NCCCCC1CCN(C(=O)c2ccccc2)CC1 + Cc1cn(-c2cc(NC(=O)c3ccc(C)c(Nc4nccc(-c5cccnc5)n4)c3)cc(C(F)(F)F)c2)cn1 [nilotinib] (first compound 0.01 µM, partner dose 0.2 µM) under cleaved PARP positive nuclei fraction (WM1716) [%]: 49.2
Value for O=C(Nc1cc(C(F)(F)F)cc(C(F)(F)F)c1)c1cc(Cl)ccc1O + CN(NC(=O)CC(=O)NN(C)C(=S)c1ccccc1)C(=S)c1ccccc1 [STA4783] (first compound 0.016 µM, partner dose 0.006 µM) under cleaved PARP positive nuclei fraction (WM3526) [%]: 153
